{"source": "PubChem BioAssay AID1688", "about": "(National Center for Advancing Translational Sciences (NCATS), 2009)", "note": "Values joined by “and” are separate entries in the source; they are usually repeats but may differ in a detail not shown here. Identical values can stand only once. In all, about 220,000 compounds went through this assay and about 2,400 (1.1%) were called active. The inconclusive results got no clear call from the source; some entries with a clear call stand among them for comparison. The call rests on the fitted dose curve; in most records, active means well fitted inhibition curve with a large enough effect; inconclusive means small, poorly fitted or top-dose-only effect, or effect the other way; inactive means no such curve, though single readings can be large or run the other way. Potencies of inconclusive entries are doubtful fits and often do not repeat. On the % scale 0 is the no-effect control and ±100 the full control effect; potency means the concentration at half of the fitted maximal effect.", "data": [{"test": "qHTS Multiplex Assay to Identify Dual Action Probes in a Cell Model of Huntington: Aggregate Formation (GFP); further: nearly all actives have a fitted effect of over 60% in size", "conditions": "PC12 HttQ103-GFP aggregates, Acumen cytometry, 40 h; activity change, negative = inhibition: at 46.1 µM (top of the series) unless noted", "outline": "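Inducible Q103 Huntingtin exon 1–GFP PC12 line, 1500 cells/well in phenol red free DMEM with 5% equine and 5% calf serum. Tebufenozide 100 nM induced expression; compounds titrated; aggregates quantified by cytometry.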", "values": [{"smiles": "CCN(CC)C(=S)SSC(=S)N(CC)CC", "Potency": "inconclusive: 0.794 µM [inhibitor, full curve]"}, {"smiles": "CCOC(=O)CCCCC(=O)c1[nH]c(=O)[nH]c1C[n+]1ccc(C)cc1", "Potency": "inconclusive: 14.1 µM [activator, single point]"}, {"smiles": "N=C1CCCN1CC(=O)c1ccc(Br)cc1", "Potency": "inconclusive: 5.62 µM [inhibitor, single point]"}, {"smiles": "O=C(Cc1cccs1)N/N=C/C=C\\c1ccco1", "Potency": "inconclusive: 10 µM [activator, single point]"}, {"smiles": "O=S(=O)(Nc1ccc(Cc2ccncc2)cc1)c1ccc(Br)cc1", "Potency": "inconclusive: 17.8 µM [inhibitor, single point]"}, {"smiles": "Cc1coc(C)c1C(=O)CC1(O)C(=O)N(CCc2ccccc2)c2ccccc21", "note": "(stereo unspecified)", "Potency": "inconclusive: 15.8 µM [activator, single point]"}, {"smiles": "Nc1sc(-c2ccccc2)c(Cc2ccccc2)c1C(=O)O", "Potency": "inactive"}, {"smiles": "COc1ccccc1-[n+]1c(C)cc(/C=C2\\Sc3ccccc3N2C)cc1C", "Potency": "active: 0.891 µM"}, {"smiles": "Cc1cc2nc3ccc(=[N+](C)C)cc-3sc2cc1N", "activity change, negative = inhibition": "inactive: -37.1% [at 9.22 µM]"}, {"smiles": "N#Cc1c(N)nc2c3c(sc(=N)c2c1N)NC(=O)CC3c1ccccc1", "note": "(stereo unspecified)", "Potency": "inconclusive: 35.5 µM [activator, single point]"}, {"smiles": "O=C(O)/C=C\\c1ccccc1Oc1cccc(Cl)c1", "Potency": "inactive"}, {"smiles": "Cc1ccc2nc(NC(=S)NC(=O)c3ccc(OC(C)C)cc3)sc2c1", "Potency": "inconclusive: 11.2 µM [activator, partial curve]"}, {"smiles": "O=C(O)c1ccc2c(c1)C(=O)/C(=C/c1ccccc1)C2=O", "Potency": "inactive"}, {"smiles": "O=C(/C=C/c1ccco1)Nc1ccc2nn(-c3ccccc3)nc2c1", "Potency": "inconclusive: 12.6 µM [activator, partial curve]"}, {"smiles": "CNC(=S)N(Cc1ccco1)Cc1cc2cc(OC)ccc2[nH]c1=O", "Potency": "inconclusive: 3.55 µM [activator, single point]"}, {"smiles": "Cn1c(C(=O)NCc2cccs2)cc2oc3ccccc3c21", "Potency": "inconclusive: 35.5 µM [inhibitor, single point]"}, {"smiles": "Cc1ccc(C)c(N2CCN(S(=O)(=O)c3ccc4c(c3)CCC(=O)N4)CC2)c1", "Potency": "inconclusive: 35.5 µM [inhibitor, single point]"}, {"smiles": "O=C1/C(=C/c2ccco2)Cc2ccccc21", "Potency": "inactive"}, {"smiles": "CCCCOc1ccc(S(=O)(=O)Nc2cc(OC)ccc2OC)cc1", "Potency": "inconclusive: 12.6 µM [inhibitor, single point]"}, {"smiles": "COc1ccccc1CNC(=S)Nc1ccc2nc(N3CCN(C)CC3)cc(C)c2c1", "Potency": "inconclusive: 35.5 µM [inhibitor, single point]"}, {"smiles": "O=C(NCCC(c1ccccc1)c1ccccc1)c1ccc(Br)o1", "Potency": "inactive"}, {"smiles": "Cc1nc(C)c(CCNC(=O)c2ccccc2)s1", "Potency": "inactive"}, {"smiles": "CC1=CCC(C(=O)O)C(C(=O)Nc2nc3ccc(S(C)(=O)=O)cc3s2)C1", "note": "(stereo unspecified)", "Potency": "inactive"}, {"smiles": "COc1cc(NCCCCCCCN)c2ncccc2c1", "Potency": "active: 1.78 µM"}, {"smiles": "Cc1ccc(O)c(N=NC2=C(O)CC(C)(C)CC2=O)c1", "Potency": "inconclusive: 2.51 µM [inhibitor, full curve]"}, {"smiles": "CN(C)CCn1c(C(=O)Nc2ccccc2)cc2ccccc21", "Potency": "active: 3.16 µM"}, {"smiles": "COc1cccc(N2CC(C(=O)Nc3nnc(SCc4ccccn4)s3)CC2=O)c1", "note": "(stereo unspecified)", "Potency": "inconclusive: 4.47 µM [activator, single point]"}, {"smiles": "O=C(c1cccs1)c1no[n+]([O-])c1C(=O)c1cccs1", "Potency": "inconclusive: 5.62 µM [inhibitor, single point]"}, {"smiles": "COc1ccc(CCC(C)Nc2ccc(F)c(F)c2)cc1", "note": "(stereo unspecified)", "Potency": "active: 11.2 µM"}, {"smiles": "CSc1oc(-c2ccccc2)nc1S(=O)(=O)c1ccc(F)cc1", "Potency": "inconclusive: 8.91 µM [inhibitor, partial curve]"}, {"smiles": "CCN1C(=O)CC(Sc2ccccc2C(=O)O)C1=O", "note": "(stereo unspecified)", "Potency": "inactive"}, {"smiles": "CCC(C)NC(=O)CSc1nc2ccc(N3CCOCC3)cc2c(=O)n1CCc1ccccc1", "note": "(stereo unspecified)", "Potency": "inactive"}, {"smiles": "Cc1cccc(NC(=S)N(c2ccccc2)C(C)C)c1C", "Potency": "inconclusive: 10 µM [activator, partial curve, poor fit]"}, {"smiles": "O=C(O)C1CCCN(S(=O)(=O)c2ccc(Br)s2)C1", "note": "(stereo unspecified)", "Potency": "inactive"}, {"smiles": "N#Cc1c(C(F)(F)F)cc(-c2ccc(F)cc2)[nH]c1=O", "Potency": "inconclusive: 31.6 µM [inhibitor, single point]"}, {"smiles": "O=C(O)C(Cc1c[nH]c2ccccc12)N1C(=O)c2ccccc2C1=O", "note": "(stereo unspecified)", "activity change, negative = inhibition": "inactive: 4.93% [at 9.22 µM] and inactive: 7.53% [at 9.22 µM]"}, {"smiles": "CCN(CC)CCCNC(=O)c1cc(Sc2nnc(C)s2)nc2ccccc12", "Potency": "inconclusive: 6.31 µM [activator, single point]"}, {"smiles": "COCCN=c1scc(-c2ccco2)n1/N=C/c1ccc(O)c(O)c1O", "Potency": "inconclusive: 15.8 µM [activator, single point]"}, {"smiles": "COc1cccc(/C=N/NC(=O)C(=O)N2CCCC2)c1O", "Potency": "inactive"}, {"smiles": "C/C(CC(=O)N1CCCC1)=N\\NC(=O)c1cc2ccccc2cc1O", "activity change, negative = inhibition": "inactive: 14.8% [at 9.22 µM]"}, {"smiles": "Cc1nn(Cc2ccc(Cl)c(Cl)c2)c(C)c1NC(=O)c1cc(C2CC2)on1", "Potency": "active: 17.8 µM"}, {"smiles": "O=C(Nc1ccccc1O)c1ccccc1O", "Potency": "inconclusive: 35.5 µM [inhibitor, single point]"}, {"smiles": "O=C(COC(=O)c1cccnc1Cl)Nc1ccc2c(c1)OCCO2", "Potency": "inactive"}, {"smiles": "CC(C)OCCCNc1ncnc2c1[nH]c1ccc(F)cc12", "Potency": "active: 2.24 µM"}, {"smiles": "CC(C)NC(=O)c1cc2cc(Br)ccc2oc1=O", "Potency": "inconclusive: 35.5 µM [inhibitor, single point]"}, {"smiles": "CCOC(=O)NC(NS(=O)(=O)c1ccccc1)(C(=O)OCC)C(F)(F)F", "note": "(stereo unspecified)", "Potency": "inactive"}, {"smiles": "COc1ccc(Cc2nnc(SCC(=O)c3ccc(OC)cc3)o2)cc1", "Potency": "inconclusive: 3.55 µM [inhibitor, single point]"}, {"smiles": "Cc1oc(C)c2c(=O)ccc3c(c12)OC(N)=C(C#N)C3c1ccccc1Cl", "note": "(stereo unspecified)", "Potency": "inconclusive: 35.5 µM [activator, single point]"}, {"smiles": "C/C(=N\\Nc1ccc(C(=O)O)cc1)c1ccc(-n2ccnc2)cc1", "Potency": "inconclusive: 35.5 µM [activator, single point]"}, {"smiles": "Cc1cc(N2C(=O)C=CC2=O)c([N+](=O)[O-])cc1C", "Potency": "inconclusive: 35.5 µM [inhibitor, single point]"}, {"smiles": "CN(CC(=O)NCc1ccco1)S(=O)(=O)c1ccc2c(c1)n(C)c(=O)c(=O)n2C", "Potency": "inconclusive: 1.26 µM [activator, single point]"}, {"smiles": "CCOc1cc(N2CCOCC2)c(OCC)cc1NC(=O)CC12CC3CC(CC(C3)C1)C2", "Potency": "inactive"}, {"smiles": "CCC12CN3CC(CC)(CN(C1)C3c1c(O)ccc3ccccc13)C2=O", "note": "(stereo unspecified)", "Potency": "inactive"}, {"smiles": "c1cc2[nH]snc2c2nc(C3CC3)nc12", "Potency": "active: 11.2 µM"}, {"smiles": "O=C(Nc1cccc(Cl)c1)Nc1ccc(Br)cc1F", "Potency": "inconclusive: 25.1 µM [inhibitor, single point]"}, {"smiles": "Cc1c(Nc2cc(N3CCCCCC3)c3nonc3c2[N+](=O)[O-])c(=O)n(-c2ccccc2)n1C", "Potency": "inactive"}, {"smiles": "CC(NS(=O)(=O)c1ccc(Br)cc1)C(N)=O", "note": "(stereo unspecified)", "Potency": "inconclusive: 2.51 µM [inhibitor, partial curve]"}, {"smiles": "CS(=O)(=O)Nc1ccccc1C(=O)Nc1cc(Cl)cc(Cl)c1", "Potency": "active: 8.91 µM"}, {"smiles": "CC(=O)c1cccc(NS(=O)(=O)N(C)C)c1", "Potency": "inconclusive: 1 µM [inhibitor, partial curve]"}, {"smiles": "CC(=O)Nc1ccc(Oc2sc(C(=O)c3ccccc3)c(N)c2C#N)cc1", "Potency": "inconclusive: 17.8 µM [inhibitor, single point]"}, {"smiles": "CCOC(=O)c1ccc(-n2c(C)ccc2C)cc1", "Potency": "inconclusive: 3.98 µM [activator, full curve, poor fit]"}, {"smiles": "CN1CCN(C(=O)c2ccc3c(=O)n(Cc4ccc(Cl)cc4)c(=S)[nH]c3c2)CC1", "Potency": "inactive"}, {"smiles": "N#Cc1c(-c2cccnc2)cc(-c2ccccc2)nc1N", "activity change, negative = inhibition": "inactive: 6.02% [at 9.22 µM]"}, {"smiles": "OC(COCc1ccc(Cl)cc1)CN1CCN(CC(O)COCc2ccc(Cl)cc2)CC1", "note": "(stereo unspecified)", "Potency": "active: 3.98 µM"}, {"smiles": "Cn1nc(-c2ccc(Cl)cc2)c2cc(C(=O)NCc3ccco3)sc21", "Potency": "active: 20 µM"}, {"smiles": "CCOC(=O)C1CCCN(C(=O)c2ccc(C)cc2O)C1", "note": "(stereo unspecified)", "Potency": "inactive"}, {"smiles": "CSCCC1NC(=O)N(CC(=O)Nc2ccc(N3CCCCC3)cc2)C1=O", "note": "(stereo unspecified)", "Potency": "inconclusive: 5.62 µM [activator, single point]"}, {"smiles": "CCn1c(Sc2nc(C)nc3scc(-c4cccs4)c23)n[nH]c1=O", "Potency": "inconclusive: 1.12 µM [activator, partial curve, poor fit]"}, {"smiles": "COc1cc(N(C)C)c([N+](=O)[O-])cc1C(=O)N1CCN(Cc2ccccc2)CC1", "Potency": "inconclusive: 3.98 µM [inhibitor, partial curve]"}, {"smiles": "CCNC(=S)N=Nc1c(O)[nH]c2ccc(C(C)C)cc12", "Potency": "inconclusive: 35.5 µM [inhibitor, single point]"}, {"smiles": "C/C(=N\\Nc1ncc(Cl)cc1Cl)c1ccc(S(=O)(=O)NCc2ccco2)cc1", "Potency": "inconclusive: 15.8 µM [inhibitor, single point]"}, {"smiles": "COc1ccc(-c2c(C)nn(-c3ccccc3)c2N)cc1OC", "Potency": "inactive"}, {"smiles": "C(=N\\Nc1nc2ccccc2[nH]1)/c1ccncc1", "Potency": "inactive"}, {"smiles": "Cc1ccccc1OCCCCc1c(C)n[nH]c1C", "Potency": "inconclusive: 11.2 µM [inhibitor, partial curve]"}, {"smiles": "CC(C)C(c1nnnn1C1CCCCC1)N1CCCc2ccccc21", "note": "(stereo unspecified)", "Potency": "inconclusive: 11.2 µM [inhibitor, partial curve]"}, {"smiles": "Cn1nc(C(F)(F)F)c(/C=N/OC(=O)c2ccccc2)c1SCc1ccc(Cl)cc1", "Potency": "inconclusive: 11.2 µM [inhibitor, single point]"}]}]}
